# Results as given in PMC9772228, “Structure of a RecT/Redβ family recombinase in complex with a duplex intermediate of DNA annealing”.
# Target: T1, LiRecT V98A (Listeria innocua CLIP 11262) (UniProt Q92FL9)
# T1 sequence (looked up): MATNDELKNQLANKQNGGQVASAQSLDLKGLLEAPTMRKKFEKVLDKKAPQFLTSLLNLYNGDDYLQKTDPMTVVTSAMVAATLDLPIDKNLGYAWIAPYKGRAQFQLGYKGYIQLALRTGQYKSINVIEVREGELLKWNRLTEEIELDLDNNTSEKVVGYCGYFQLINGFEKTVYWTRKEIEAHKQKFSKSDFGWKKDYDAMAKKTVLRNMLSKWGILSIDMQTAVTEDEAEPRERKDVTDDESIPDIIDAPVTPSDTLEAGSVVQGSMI
# Test: EMSA
# Settings: EMSA: PBS pH 7.4 (or KH2PO4/10 mM MgCl2 pH 6.0), 3.6 or 5 uM protein, 25 uM nt DNA, 37 C 15 min per strand, 0.8% agarose 1x TBE; recombinant protein; residues 1-271; protein details: N-terminal 6His vector tag (20 aa) retained; label: 5'-Cy3,5'-Cy5
sequence,measurement,value
GCGGATGGCTTAGAGCAGAATCGCCCTGCATAGCTCGATTTTTGCGGATG / CCATCCGCAAAAATCGAGCTATGCAGGGCGATTCTGCTCTAAGCCATCCG [50-mer duplex intermediate (sequential addition)],binding result,binds more weakly

# The comparison behind a weaker result is the experiment's own reference, which may not be listed here. Protein sequences can lack the tags named with them.
